Results taken from patent US20220340905, “NUCLEIC ACID APTAMER SPECIFICALLY RECOGNIZING B-LACTOGLOBULIN AND USE THEREOF” (JIANGNAN UNIVERSITY, published 2022).
Construct, isoform or probe ends are uncertain for at least one entry. Negatives hold for the conditions tested.

Legend:
[1] = tested on: casein; assay: binding assay; details: specificity control, 50 ug/mL protein, 200 nM aptamer on magnetic beads; text states good specificity; purified native protein; label: 5'-FAM (fluorescence assay); single-stranded DNA
[2] = tested on: IgG; assay: binding assay; details: specificity control, 50 ug/mL protein, 200 nM aptamer on magnetic beads; text states good specificity; purified native protein; label: 5'-FAM (fluorescence assay); single-stranded DNA

Sequence: AGCAGCACAGAGGTCAGATGTTCGGCCTTTGCGTTAACGAACTTCTAGCTATGCGGCGTACCTATGCGTGCTACCGTGAA [Lg-18]
- binding result [1]: no binding
- binding result [2]: no binding
